Results are given in words; binding and its absence hold for the method and conditions named. Binding seen in cells or lysates may run through a third protein. Binding calls can cover weak binding; strength is not graded here.

The experiment addresses Flag-YAP-ΔWW. The experiment is described as follows: co-IP; tagged bait immunoprecipitated by Flag or Myc antibody from A549 cells infected with lentivirus or transfected with wild type or mutant, immunoblotted for the partners (Fig. 5D-F, Supplementary Fig. 6A). A general note: Immunoblotting shows a protein as a band on a membrane.

B1: P130cas (endogenous) (protein, UniProt P56945 1-870)
chain: MNHLNVLAKALYDNVAESPDELSFRKGDIMTVLEQDTQGLDGWWLCSLHGRQGIVPGNRLKILVGMYDKKPAGPGPGPPATPAQPQPGLHAPAPPASQYTPMLPNTYQPQPDSVYLVPTPSKAQQGLYQVPGPSPQFQSPPAKQTSTFSKQTPHHPFPSPATDLYQVPPGPGGPAQDIYQVPPSAGMGHDIYQVPPSMDTRSWEGTKPPAKVVVPTRVGQGYVYEAAQPEQDEYDIPRHLLAPGPQDIYDVPPVRGLLPSQYGQEVYDTPPMAVKGPNGRDPLLEVYDVPPSVEKGLPPSNHHAVYDVPPSVSKDVPDGPLLREETYDVPPAFAKAKPFDPARTPLVLAAPPPDSPPAEDVYDVPPPAPDLYDVPPGLRRPGPGTLYDVPRERVLPPEVADGGVVDSGVYAVPPPAEREAPAEGKRLSASSTGSTRSSQSASSLEVAGPGREPLELEVAVEALARLQQGVSATVAHLLDLAGSAGATGSWRSPSEPQEPLVQDLQAAVAAVQSAVHELLEFARSAVGNAAHTSDRALHAKLSRQLQKMEDVHQTLVAHGQALDAGRGGSGATLEDLDRLVACSRAVPEDAKQLASFLHGNASLLFRRTKATAPGPEGGGTLHPNPTDKTSSIQSRPLPSPPKFTSQDSPDGQYENSEGGWMEDYDYVHLQGKEEFEKTQKELLEKGSITRQGKSQLELQQLKQFERLEQEVSRPIDHDLANWTPAQPLAPGRTGGLGPSDRQLLLFYLEQCEANLTTLTNAVDAFFTAVATNQPPKIFVAHSKFVILSAHKLVFIGDTLSRQAKAADVRSQVTHYSNLLCDLLRGIVATTKAAALQYPSPSAAQDMVERVKELGHSTQQFRRVLGQLAAA
For B1, the binding entry is given as “binds”.

Values taken from publication PMC9464229.
